From the supplement of paper PMC7238544
Where a name gives a salt, the structure may show the parent alone. ± gives the standard deviation of the averaged measurements. The list shows a part of the results. The data scatter; read single values as rough.

What was measured:
hAMSC donor 1 [1] = assay: Hoechst total cell count ratio vs vehicle control; higher = more cells (less toxicity)
hAMSC donor 2 [2] = assay: as above
hAMSC donor 1 [3] = assay: transgenic luciferase activity (RLU/mg protein) fold change vs vehicle control (ratio); higher = more transgene expression
hAMSC donor 2 [4] = assay: as above
hAMSC donor 1 [5] = assay: transfection efficiency (EGFP+ cells / Hoechst count) fold change vs vehicle control (ratio); hAMSC are human adipose-derived mesenchymal stem cells given an EGFP-luciferase plasmid by lipofection; higher = enhanced transfection
hAMSC donor 2 [6] = assay: as above
[7] = priming compound concentration 0.2 µM
[8] = priming compound concentration 1.7 µM
[9] = priming compound concentration 13 µM

Compound	Hoechst total cell count ratio (hAMSC donor 1 [1]; [7])	Hoechst total cell count ratio (hAMSC donor 1 [1]; [8])	Hoechst total cell count ratio (hAMSC donor 1 [1]; [9])	Hoechst total cell count ratio (hAMSC donor 2 [2]; [7])	Hoechst total cell count ratio (hAMSC donor 2 [2]; [8])	Hoechst total cell count ratio (hAMSC donor 2 [2]; [9])	transgenic luciferase activity (hAMSC donor 1 [3]; [8])	transgenic luciferase activity (hAMSC donor 2 [4]; [8])	transgenic luciferase activity (hAMSC donor 2 [4]; [9])	transfection efficiency (hAMSC donor 1 [5]; [7])	transfection efficiency (hAMSC donor 1 [5]; [8])	transfection efficiency (hAMSC donor 1 [5]; [9])	transfection efficiency (hAMSC donor 2 [6]; [7])	transfection efficiency (hAMSC donor 2 [6]; [8])	transfection efficiency (hAMSC donor 2 [6]; [9])	transgenic luciferase activity (hAMSC donor 2 [4]; [7])	transgenic luciferase activity (hAMSC donor 1 [3]; [9])
CCCc1nc2c(C)cc(-c3nc4ccccc4n3C)cc2n1Cc1ccc(-c2ccccc2C(=O)O)cc1 [Telmisartan]	1.27 ± 0.056	1.25 ± 0.22	1.2 ± 0.047	1.11 ± 0.21	1.06 ± 0.095	0.986 ± 0.18	0.974 ± 0.42	0.437 ± 0.38	0.903 ± 0.07	0.972 ± 0.22	0.857 ± 0.15	1.61 ± 0.41	0.753 ± 0.089	0.976 ± 0.07	0.982 ± 0.11		
O=C(NCCN1CCOCC1)c1ccc(Cl)cc1 [Moclobemide]	1.13 ± 0.086	1.19 ± 0.057	1.12 ± 0.088	1.42 ± 0.15	1.32 ± 0.054	1.16 ± 0.031	0.906 ± 0.43	0.737 ± 0.12	0.467 ± 0.085	0.916 ± 0.32	1.01 ± 0.33	1.13 ± 0.34	0.845 ± 0.17	1.03 ± 0.22	1 ± 0.067		
Clc1ccccc1C(c1ccccc1)(c1ccccc1)n1ccnc1 [Clotrimazole]	1.23 ± 0.064	1.29 ± 0.036	1.19 ± 0.18	0.94 ± 0.033	1.32 ± 0.098	1.19 ± 0.079	1.32 ± 0.36	0.757 ± 0.1	0.733 ± 0.2	1.05 ± 0.21	1.22 ± 0.3	1.29 ± 0.35	1.18 ± 0.27	0.947 ± 0.044	1.03 ± 0.12		
CS(=O)(=O)OCCCCOS(C)(=O)=O [Busulfan]	1.18 ± 0.11	1.22 ± 0.048	1.24 ± 0.1	1.04 ± 0.26	0.929 ± 0.061	1.1 ± 0.061	0.343 ± 0.0044	1.01 ± 0.46		1.11 ± 0.23	0.508 ± 0.033	1.28 ± 0.21	0.941 ± 0.16	1.24 ± 0.041	1.24 ± 0.11	1.49 ± 0.51	
C#C[C@]1(O)CC[C@H]2[C@@H]3[C@H](C)CC4=C(CCC(=O)C4)[C@H]3CC[C@@]21C [Tibolone]	1.05 ± 0.058	1.03 ± 0.022	1.102 ± 0.0067	1.23 ± 0.088	1.18 ± 0.072	1.26 ± 0.034	1.1 ± 0.13	0.801 ± 0.096		1.1 ± 0.099	1.32 ± 0.51	1.07 ± 0.28	0.988 ± 0.21	1.09 ± 0.32	0.991 ± 0.2	0.78 ± 0.086	
CC(=O)CCCCn1c(=O)c2c(ncn2C)n(C)c1=O [Pentoxifylline]	1.4 ± 0.14	1.24 ± 0.042	1.32 ± 0.2	1.31 ± 0.3	1.24 ± 0.063	1.32 ± 0.2	1.05 ± 0.32	1.43 ± 0.2	0.805 ± 0.16	0.735 ± 0.066	1.11 ± 0.058	1.28 ± 0.21	0.792 ± 0.092	1.11 ± 0.044	0.957 ± 0.22		
NC(=O)N1c2ccccc2C=Cc2ccccc21 [Carbamazepine]	1.22 ± 0.13	1.38 ± 0.17	1.27 ± 0.14	1.15 ± 0.082	1.28 ± 0.055	1.29 ± 0.077			0.615 ± 0.15	0.888 ± 0.19	1.2 ± 0.53	0.876 ± 0.19	1.21 ± 0.13	0.771 ± 0.14	0.857 ± 0.039	0.809 ± 0.24	0.959 ± 0.19
COc1cc(Cc2cnc(N)nc2N)cc(OC)c1OC [Trimethoprim]	1.17 ± 0.021	1.08 ± 0.026	1.19 ± 0.059	1.11 ± 0.14	1.12 ± 0.33	1.42 ± 0.35	0.561 ± 0.06	1.34 ± 0.018		1.02 ± 0.25	0.768 ± 0.062	1.41 ± 0.43	1.5 ± 0.52	1.81 ± 0.27	1.15 ± 0.28	1.78 ± 0.55	
CN1C(=O)CC[C@H]1c1cccnc1 [(-)-Cotinine]	1.14 ± 0.046	1.02 ± 0.013	1.19 ± 0.05	1.19 ± 0.25	1.05 ± 0.15	1.11 ± 0.21	0.914 ± 0.2	0.718 ± 0.049		1.14 ± 0.32	1.26 ± 0.34	1.7 ± 1.1	0.938 ± 0.13	1.16 ± 0.16	1.02 ± 0.027	1.24 ± 0.32	
CCN1CCN(C(=O)N[C@@H](C(=O)N[C@@H]2C(=O)N3[C@@H]2SC(C)(C)[C@@H]3C(=O)O)c2ccccc2)C(=O)C1=O [Piperacillin sodium]	1.38 ± 0.2	1.5 ± 0.079	1.25 ± 0.07	1.09 ± 0.1	1.06 ± 0.065	1.17 ± 0.1			0.399 ± 0.049	1.17 ± 0.44	1.09 ± 0.086	1.28 ± 0.27	1.22 ± 0.098	0.808 ± 0.039	1 ± 0.022	0.735 ± 0.11	0.988 ± 0.33
CN1CCCCC1CCN1c2ccccc2Sc2ccc([S+](C)[O-])cc21 (stereo not given) [Mesoridazine besylate]	1.22 ± 0.1	1.13 ± 0.057	1.21 ± 0.019	1.55 ± 0.32	1.43 ± 0.14	1.44 ± 0.31	0.778 ± 0.022	0.521 ± 0.12		0.719 ± 0.35	0.885 ± 0.16	1.29 ± 0.11	0.892 ± 0.21	0.898 ± 0.19	0.743 ± 0.086	0.72 ± 0.15	
Cc1ncc([N+](=O)[O-])n1CCO [Metronidazole]	1.05 ± 0.11	1.02 ± 0.036	1.01 ± 0.11	1.3 ± 0.27	1.19 ± 0.13	1.08 ± 0.029	1.57 ± 0.79	1.37 ± 0.096		1.25 ± 0.49	1.26 ± 0.36	1.3 ± 0.57	0.925 ± 0.077	1.15 ± 0.34	1.08 ± 0.46	1.25 ± 0.4	
O=C(O[C@@H]1Cc2c(O)cc(O)cc2O[C@@H]1c1cc(O)c(O)c(O)c1)c1cc(O)c(O)c(O)c1 [Epigallocatechin gallate]	1.02 ± 0.019	0.939 ± 0.21	0.873 ± 0.097	1.14 ± 0.16	0.948 ± 0.11	0.954 ± 0.023	1.69 ± 0.85	0.876 ± 0.18	0.645 ± 0.083	1.01 ± 0.086	1.21 ± 0.53	0.974 ± 0.18	0.894 ± 0.15	0.92 ± 0.21	0.903 ± 0.14		
CC(C)NCC(O)c1ccc(NS(C)(=O)=O)cc1 (stereo not given) [Sotalol hydrochloride]	1.18 ± 0.064	1.06 ± 0.11	1.19 ± 0.051	0.982 ± 0.25	1.43 ± 0.13	1.25 ± 0.19	0.791 ± 0.079	1.11 ± 0.24		0.868 ± 0.35	1.2 ± 0.23	1.16 ± 0.58	1.28 ± 0.17	0.842 ± 0.16	0.961 ± 0.16	1.03 ± 0.28	

An excerpt of the results above:
Compound	Hoechst total cell count ratio (hAMSC donor 1 [1]; [7])	Hoechst total cell count ratio (hAMSC donor 1 [1]; [8])	Hoechst total cell count ratio (hAMSC donor 1 [1]; [9])	Hoechst total cell count ratio (hAMSC donor 2 [2]; [7])	Hoechst total cell count ratio (hAMSC donor 2 [2]; [8])	Hoechst total cell count ratio (hAMSC donor 2 [2]; [9])	transgenic luciferase activity (hAMSC donor 1 [3]; [8])	transgenic luciferase activity (hAMSC donor 2 [4]; [8])	transgenic luciferase activity (hAMSC donor 2 [4]; [9])	transfection efficiency (hAMSC donor 1 [5]; [7])	transfection efficiency (hAMSC donor 1 [5]; [8])	transfection efficiency (hAMSC donor 1 [5]; [9])	transfection efficiency (hAMSC donor 2 [6]; [7])	transfection efficiency (hAMSC donor 2 [6]; [8])	transfection efficiency (hAMSC donor 2 [6]; [9])	transgenic luciferase activity (hAMSC donor 2 [4]; [7])	transgenic luciferase activity (hAMSC donor 1 [3]; [9])
O=C(O[C@@H]1Cc2c(O)cc(O)cc2O[C@@H]1c1cc(O)c(O)c(O)c1)c1cc(O)c(O)c(O)c1 [Epigallocatechin gallate]	1.02 ± 0.019	0.939 ± 0.21	0.873 ± 0.097	1.14 ± 0.16	0.948 ± 0.11	0.954 ± 0.023	1.69 ± 0.85	0.876 ± 0.18	0.645 ± 0.083	1.01 ± 0.086	1.21 ± 0.53	0.974 ± 0.18	0.894 ± 0.15	0.92 ± 0.21	0.903 ± 0.14		
CC(C)NCC(O)c1ccc(NS(C)(=O)=O)cc1 (stereo not given) [Sotalol hydrochloride]	1.18 ± 0.064	1.06 ± 0.11	1.19 ± 0.051	0.982 ± 0.25	1.43 ± 0.13	1.25 ± 0.19	0.791 ± 0.079	1.11 ± 0.24		0.868 ± 0.35	1.2 ± 0.23	1.16 ± 0.58	1.28 ± 0.17	0.842 ± 0.16	0.961 ± 0.16	1.03 ± 0.28	
